Test results reported in patent US12667602B2, “Composition for preventing, treating or alleviating diabetes, comprising LGI3-derived peptide as an active ingredient” (CHUNG-ANG UNIVERSITY INDUSTRY-ACADEMIC COOPERATION …, priority 2019, dated 2026).
Entries after “also recorded” stand apart in the source; their conditions may differ. Part of at least one peptide drawing is inferred or uncertain, most often the ends. Residues, ends and D or L forms follow the SMILES beside them.

Experiments:
Assay type in all cases: in vivo, mouse
[1] = tested on: db/db mice; assay: Feed intake of db/db mice given LGI3-derived peptide; settings: 10 mg/kg intraperitoneally twice/week for 6 weeks
[2] = tested on: db/db mice; assay: Body weight of db/db mice given LGI3-derived peptide; settings: for weight loss effect compared to the excipient-administered group: 10 mg/kg intraperitoneally twice/week for 6 weeks, body weight measured every week
[3] = tested on: db/db mice; assay: Blood biochemical indices of db/db mice; settings: 10 mg/kg intraperitoneally for 6 weeks; for LDL/HDL ratio compared to the excipient-administered group / TG/HDL ratio compared to the excipient-administered group / blood ALT compared to the excipient-administered group / blood AST compared to the excipient-administered group / blood low density lipoprotein (LDL) compared to the excipient-administered group / blood triglyceride (TG) compared to the excipient-administered group: 10 mg/kg
[4] = tested on: db/db mice; assay: Serum insulin (ELISA) and insulin resistance index HOMA-IR of db/db mice; settings: 10 mg/kg intraperitoneally for 6 weeks; for blood insulin levels compared to the excipient-administered group: serum ELISA
[5] = tested on: db/db mice; assay: Fasting blood glucose of db/db mice (blood glucose meter, weekly); settings: for decrease in blood glucose: 10 mg/kg intraperitoneally twice/week, at week 1 to 5; for blood glucose decreasing effect: administered for 6 weeks, 10 mg/kg intraperitoneally
[6] = tested on: db/db mice; assay: Histopathological examination of the pancreas (H&E staining, image analysis); settings: 10 mg/kg intraperitoneally for 6 weeks; for proportion of zymogen granules per unit area of the pancreatic exocrine (zymogen granules %/mm^2 of exocrine): vs excipient group

## CC(C)C[C@H](NC(=O)[C@H](C)NC(=O)[C@H](CCC(N)=O)NC(=O)[C@H](Cc1c[nH]cn1)NC(=O)[C@H](CO)NC(=O)[C@H](Cc1ccc(O)cc1)NC(=O)[C@H](Cc1ccccc1)NC(=O)CNC(=O)[C@H](CC(N)=O)NC(=O)[C@@H](N)CCC(N)=O)C(=O)N[C@@H](Cc1c[nH]cn1)C(=O)N[C@@H](C)C(=O)N[C@@H](Cc1c[nH]c2ccccc12)C(=O)N[C@@H](Cc1c[nH]cn1)C(=O)N[C@@H](CCCNC(=N)N)C(=O)O [P25] (H-QNGFYSHQALHAWHR-OH; N-terminus and C-terminus assumed)
[1]
  feed intake difference compared to the excipient-administered group: no difference in feed intake
[2]
  weight loss effect compared to the excipient-administered group: no significant change in weight
[3]
  high density lipoprotein (HDL) compared to the excipient-administered group: increased
  LDL/HDL ratio compared to the excipient-administered group: remarkably reduced
  TG/HDL ratio compared to the excipient-administered group: remarkably reduced
  blood ALT compared to the excipient-administered group: reduced; also recorded: decreased
  blood AST compared to the excipient-administered group: reduced; also recorded: decreased
  blood low density lipoprotein (LDL) compared to the excipient-administered group: reduced; also recorded: decreased
  blood triglyceride (TG) compared to the excipient-administered group: reduced; also recorded: decreased
[4]
  insulin resistance index (HOMA-IR) compared to the control: reduced and improved
  blood insulin levels compared to the excipient-administered group: reduced and improved
[5]
  decrease in blood glucose: 6 to 9%
  blood glucose decreasing effect: 6 to 9%
[6]
  changes in pancreatic islet diameters (μm) compared to the excipient-administered group: not observed
  changes in pancreatic islet numbers (islets/cm^2) compared to the excipient-administered group: not observed
  proportion of zymogen granules per unit area of the pancreatic exocrine (zymogen granules %/mm^2 of exocrine): significant increases

## CC(C)C[C@H](NC(=O)[C@H](CCC(=O)O)NC(=O)[C@H](CCC(N)=O)NC(=O)[C@H](Cc1ccccc1)NC(=O)[C@H](CCCNC(=N)N)NC(=O)[C@@H](NC(=O)[C@H](Cc1ccccc1)NC(=O)[C@H](CCCCN)NC(=O)[C@H](CCC(N)=O)NC(=O)[C@H](CCCNC(=N)N)NC(=O)CNC(=O)[C@H](CCC(=O)O)NC(=O)[C@@H](N)CC(=O)O)C(C)C)C(=O)N[C@@H](C)C(=O)N[C@H](C(=O)O)C(C)C [P34] (H-DEGRQKFVRFQELAV-OH; N-terminus and C-terminus assumed)
[1]
  feed intake difference compared to the excipient-administered group: no difference in feed intake
[2]
  weight loss effect compared to the excipient-administered group: about 7%
[2]; 10 mg/kg intraperitoneally twice/week, at week 5 to 7
  weight loss: 6 to 7%
[3]
  high density lipoprotein (HDL) compared to the excipient-administered group: increased
  LDL/HDL ratio compared to the excipient-administered group: remarkably reduced
  TG/HDL ratio compared to the excipient-administered group: remarkably reduced
  blood ALT compared to the excipient-administered group: reduced; also recorded: decreased
  blood AST compared to the excipient-administered group: reduced; also recorded: decreased
  blood low density lipoprotein (LDL) compared to the excipient-administered group: reduced; also recorded: decreased
  blood triglyceride (TG) compared to the excipient-administered group: reduced; also recorded: decreased
[4]
  insulin resistance index (HOMA-IR) compared to the control: reduced and improved
  blood insulin levels compared to the excipient-administered group: reduced and improved
[5]
  decrease in blood glucose: 7 to 11%
  blood glucose decreasing effect: 6 to 11%
[6]
  changes in pancreatic islet diameters (μm) compared to the excipient-administered group: not observed
  changes in pancreatic islet numbers (islets/cm^2) compared to the excipient-administered group: not observed
  proportion of zymogen granules per unit area of the pancreatic exocrine (zymogen granules %/mm^2 of exocrine): significant increases
